According to patent publication US20230355814A1:
No constants are given. Whether binding was seen depends on the method and setting. Some results given as binding are weak or reduced against the parent protein; the word gives no strength.

Target: HER2-biotin (human) (UniProt P04626)
Assay: yeast surface display, flow cytometry with HER2-biotin / Streptavidin-Alexa Fluor 488

Row | binding | Binder
1 | binds | artificially bound protein Seq3 (designed binder) AEAKYNDEMRITYWHIALFAPLENEHKRAYIRRLYDDPSRADELEEKARLEAKAMAQG
2 | binds | artificially bound protein Seq5 (designed binder) AEAKYNEEMRITYWAIALFQALENEHKRAYIRRLYDDPSRADELEEKAELEAQAMAQG
3 | binds | artificially bound protein Seq4 (designed binder) AEAKYNDEMRITYWEIALFQALENEHKRAYIRRLYDDPSRADELEEKAELEAKAMAQG

Further lines, the binder ahead of its results:

Row | Binder | binding
4 | artificially bound protein Seq1 (designed binder) AEAKYNDEMRITYWEIALFAPLENEHKRAYIRRLYDDPSRADELEEKAELEAKAMAQG | binds
5 | artificially bound protein Seq2 (designed binder) AEAKYNEEMRITYWAIALFAPLENEHKRAYIRRLYDDPSRADELEEKAELEAQAMAQG | binds
